Test results published in PubChem BioAssay AID1794845 (National Center for Advancing Translational Sciences (NCATS), 2023).
Among all 6,900 compounds or so, fewer than 10 were called active. Calls follow the shape of the dose curve; as a rule, active = well fitted curve in the direction sought with a large enough effect; inconclusive = small, poorly fitted or top-dose-only effect, or another doubt; inactive = no such curve, though single readings can be large or run the other way. The list shows a part of the results.

The chains behind the UniProt entries cited, without tags or fusion partners. Where a name states a change or a piece, a line headed by the entry shows the natural chain unless it says otherwise.
UniProt C7C422: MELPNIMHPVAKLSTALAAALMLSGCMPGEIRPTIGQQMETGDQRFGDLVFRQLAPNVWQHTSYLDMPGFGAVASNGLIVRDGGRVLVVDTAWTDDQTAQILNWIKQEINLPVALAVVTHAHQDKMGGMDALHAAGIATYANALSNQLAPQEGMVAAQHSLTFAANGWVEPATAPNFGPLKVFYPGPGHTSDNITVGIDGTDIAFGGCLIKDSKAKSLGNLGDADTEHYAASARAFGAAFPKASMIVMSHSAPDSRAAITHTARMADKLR

molecular target: Metallo-beta-lactamase type 2 (Klebsiella pneumoniae) (UniProt C7C422); experiment: qHTS to identify inhibitors of the New Delhi Metallo-beta-lactamase (NDM): primary screen against the NCATS Gemini Collection; conditions: NDM-1 enzyme, meropenem hydrolysis, absorbance 300 nm; at 38.4 µM (top of the series) unless noted; also: % of control where 0% means no effect
In short: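 Meropenem hydrolysis (50 uM final) by 2 nM NDM-1 read as 300 nm absorbance after 30 min, following >30 min compound–enzyme preincubation in HEPES pH 7.0 with 1 uM ZnSO4 and 0.01% Tween20.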

Activity % (negative = inhibition), inactive:
COc1ccc(-n2ccnc2-c2cc3n(n2)CCCNC3)c(OC)c1 5.69%, CNC(=O)[C@@H]1CN(C(=O)c2cc3cc(OC)ccc3[nH]2)C[C@H]1COC 9.91%, O=C(NC[C@H]1O[C@@H](CO)[C@@H](O)[C@H]1N1CCCC1)c1ccc(F)c(Cl)c1 2.46% [at 57.5 µM], Cn1ncc(N2CCC(CNC(=O)CCN3CCCC3=O)C2)cc1=O (stereo unspecified) 2.41%, O=C(C1CCCC1)N1CCCC(c2noc(COc3ccccc3)n2)C1 (stereo unspecified) -3.59%, Cc1ccsc1C(=O)N1CCN(c2cc(-c3cccs3)[nH]n2)CC1 13.5%, Cc1ccc(C2(O)CCN(C(=O)c3cnn4cc(CCO)cnc34)CC2)nc1 10.4%, COc1ccccc1CNC(=O)CC1COCCN1C(=O)c1cnccn1 (stereo unspecified) -10.7%, CC(C)NC(=O)N1CCC2(CC1)CN(C(=O)Cc1c[nH]c3ccccc13)CCO2 -5.48%, CCn1cc(CN2CCN(C(=O)c3cccs3)CC2)ccc1=O 0.398%, O=C1NCCCCCCN[C@H]2C[C@H](c3nc(-c4cnccn4)no3)C[C@@H]12 5.19%, O=C(O)[C@H]1C[C@@H](C(=O)NCc2ccncc2)CN(C2CCOCC2)C1 8.65%, CCC[C@H]1CN(C(=O)c2cc(=O)[nH]c3cc(F)ccc23)C[C@@H]1N 0%, O=C(NCc1csc(-c2cnccn2)n1)C1NCCc2[nH]cnc21 (stereo unspecified) -2.7%, COCC(=O)N[C@H]1C[C@H]2C(=O)NC[C@@H](CCC(=O)N3CCN(c4ccccn4)CC3)N2C1 7.81%, Cn1cc(CNC(=O)C[C@@H]2C[C@H]3O[C@H](CNC4CCCC4)[C@@H](O)[C@H]3O2)cn1 -4.18% [at 57.5 µM], O=C(NC1CC1)c1nc(-c2cccnc2)c2cnccn12 13.1% [at 57.5 µM], CC1CCCCN1Cc1nnc2cc(-c3nc(-c4ccccc4)no3)ccn12 (stereo unspecified) 11.3%, COc1c(F)ccc(C(=O)N2CCC3(CCCNC3)C2)c1F (stereo unspecified) 9.57%, CN(C1CCCc2ccccc21)S(=O)(=O)c1cccc(C(F)(F)F)c1 (stereo unspecified) 12.7%, CC1(C)NC(=O)N(CC(=O)N[C@H](Cc2ccccn2)C2CC(O)C2)C1=O (stereo partly specified) -0.419%, COc1ccccc1OC1(C(=O)O)CCN(Cc2ccc(-c3ccn[nH]3)o2)CC1 3.21%, CC(C)CN1CCN(C(=O)CC2CCN(S(C)(=O)=O)C2)CC1 (stereo unspecified) 26.1%, COc1ccccc1Nc1ccnc(N2CCCC(C(=O)NCc3cccc(Cl)c3)C2)n1 (stereo unspecified) 4.86%, COc1ccc(CN2CCCC3(C2)CN(C)C(=O)O3)cc1C(=O)O (stereo unspecified) -6.01%, C[S+](=O)([O-])CCn1ncc2cc(OCC3CCN(Cc4ccccc4)CC3)ccc21 12.6% [at 57.5 µM], Cc1ccc(NC(=O)CC2CCN(S(C)(=O)=O)C2)cc1 (stereo unspecified) 5.7%, CCS(=O)(=O)Nc1ccc(C)n(CC(=O)N(C)Cc2ccccc2)c1=O 7.38%, Cc1cc(C)c2c(N3CCCC(OCc4cccnc4)C3)ncnc2n1 (stereo unspecified) 7.83%, O=C(c1nc(-c2cc(Cl)cc(Cl)c2)c2ccccn12)N1CCCC1 4.41%, Cc1ccc(NC(=O)N2CCC3(CC2)CC(Cc2nc(-c4ccccc4)no2)CCO3)cc1C (stereo unspecified) 6.66%, CC(=O)Nc1ccc(CN2CCC3(C2)C(=O)N(C)c2ccccc23)cc1 (stereo unspecified) -7.74%, COc1ccc(-c2cc(C(=O)N3CCCC3)ccn2)cc1F 9.31%, O=C(Nc1nc2ccccc2s1)c1ccc2c(c1)OCCN(CCC(F)(F)F)C2 9.6% [at 57.5 µM], CCOc1ccc(CN(CCOC)C(=O)C2CC3(CCNCC3)CN2)cc1 (stereo unspecified) 0.537%, CCn1nc(C)c(CNC(=O)c2cc(COc3ccc4ncccc4c3)on2)c1C 6.42%, COCC(=O)N[C@@H]1CN(Cc2cn(C)nc2C)C[C@H]1CO -3.58%, COc1ccc(CC(=O)N2CCC(c3n[nH]c(=O)n3Cc3ccc(F)cc3)CC2)cc1 1.79%, COCCn1nnnc1C1CC2(CCOCC2)C(=O)N1Cc1ccc(SC)cc1 (stereo unspecified) 0.477%, O=C(C1CCCC1)N1CCC(C(=O)N2CCCC2c2ccccn2)CC1 (stereo unspecified) 17.4%, COCC1CN(C(C)=O)CC12CCN(Cc1cccc(Cl)c1F)CC2 (stereo unspecified) -9.29%, COC(=O)[C@@H]1Cc2ncn(C(C)C)c2CN1S(C)(=O)=O 0% [at 57.5 µM], CCn1cc(CN2CCN(C(=O)CCc3ccccc3)CC2)ccc1=O 7.37%, O=C(CCc1ccccc1)N1CCCC(CN2CCCC2)CC1 (stereo unspecified) -0.27%, Cc1nc2ncnn2c(C)c1CCC(=O)N1C[C@@H](N)C[C@H]1C(=O)NC(C)C 0.957%, Cn1cc(-c2cc3c(ccn3Cc3ccncc3)c(N3CCOCC3)n2)cn1 23.9% [at 57.5 µM], O=C(c1cn(CCC2CCCCN2)nn1)N1CCc2nc[nH]c(=O)c2CC1 (stereo unspecified) -0.118%, O=C(Nc1ccc2ncnc(N3CCCCC3)c2c1)c1cc(F)ccc1F 10.3%, O=C(c1ccnc(CC2CC(=O)N(c3ccccc3)C2)c1)N1CCCCC1 (stereo unspecified) 5.37%, CCC(=O)N1Cc2ccccc2CC2(CCCN2CC2CCOCC2)C1 (stereo unspecified) -0.92%, Cc1cnc(C(=O)N2CCCC2c2nc(CCOCC3CCCC3)no2)cn1 (stereo unspecified) -0.239%, O=C1NC2(Cc3ccccc31)CN(C(=O)c1ccccc1)C2 12.4% [at 57.5 µM], CCOC(=O)C[C@@H]1C[C@@H](C(C)C)[C@H](CNC(=O)c2cccnc2)C=C1C 14.1% [at 57.5 µM], COCCCn1c(C)cnc1CC1CCN(C(=O)C2CCCCC2)CC1 48.2%, Cc1ccc(CNC(=O)N2CCc3nnc(C4CC4)n3CC2)cc1 13.1%, Cc1cnc(C2CC2)n1C1CCN(C(=O)C2CC2)CC1 -2.82%, CCN1CC2(CCN(Cc3nc(COC)no3)CC2)CC(c2ccccc2)C1=O (stereo unspecified) 16.1%, O=S(=O)(NC[C@H]1O[C@@H](CO)[C@@H](O)[C@H]1N1CCOCC1)c1ccc(Cl)cc1 -7.97%, c1cc(CN(CCN2CCCCC2)CC2CCCN(C3CCCC3)C2)c2nonc2c1 (stereo unspecified) 5.81%, Cc1ccc(CNC(=O)N2CCC(c3nc(CCOCC4CCOCC4)no3)C2)cc1 (stereo unspecified) -7.54%, COC[C@@H]1CN(S(=O)(=O)c2cnc[nH]2)C[C@H]1c1ccccn1 1.39%, Cn1cnc(C(=O)N2CCC3(CC2)CC(N(Cc2ccccc2)C2CC2)CCO3)c1 (stereo unspecified) -13.7%, CCc1nc2c(c(-c3ccc(Cl)cc3)n1)CN([S+](=O)([O-])c1c(C)noc1C)CC2 -1.09%, Cc1noc(C)c1S(=O)(=O)N1CCc2n[nH]c(=O)n2CC1 9.56%, COc1ccc(NC(=O)c2cc3c(s2)CN(C2CCCC2)C3)c(OC)c1 2.49%, Cn1nccc1C(=O)N1CCC2(CCCN(Cc3cccc(F)c3F)C2=O)C1 (stereo unspecified) -9.07%, COCCNC(=O)C1c2ccccc2C(=O)N(Cc2ccco2)C12CCCCC2 (stereo unspecified) 3.06%, O=C(NCCc1ccc(Cl)cc1)C1CCc2nnc(C3CCN([S+](=O)([O-])c4ccccc4)CC3)n21 (stereo unspecified) 0.376%, Cc1nc(-c2c3n(c(=O)n(Cc4ccccc4C(F)(F)F)c2=O)CCCCC3)no1 2.52%, Cc1cc(C(=O)N2CCC3(CC2)CC(N2CCN(c4ccccn4)CC2)CCO3)n[nH]1 (stereo unspecified) 0.195%, Cn1cc(CN2CCCC(C(=O)N3CCOCC3)C2)c(-c2ccc(C3CCCCC3)cc2)n1 (stereo unspecified) -16.6%, COc1ccc(S(=O)(=O)N2CCOC[C@H](Oc3ccccc3)C2)cc1 0.651% [at 57.5 µM], O=C1N(CC2CC2)CCCC1(O)CNCc1cc(F)cc(F)c1 (stereo unspecified) -1.11%, OCCOCCn1cnc(-c2ccccc2)c1COCc1ccccc1 -1.13%, O=C(CC1CCCCC1)NCc1nnc2cc(-c3nc(C4CC4)no3)ccn12 1.31%, COc1cccc(S(=O)(=O)N2C[C@@H](C)[C@](O)(C3CCC3)C2)c1 -6.57%, CN(C)CC1(O)CCC2(CCN(C(=O)C3CCCC3)CC2)CC1 -2.34%, COc1ccccc1-c1cc(C(=O)NC2CC2)nn2cnnc12 0.0703% [at 57.5 µM], CCOc1ccc(Cl)cc1CN(C)C(=O)C1CC(=O)N(CC)C1 (stereo unspecified) -2.57%, Cc1ccc(CN2CCNC(=O)C2CC(=O)N(CC(C)C)CC(C)C)cc1 (stereo unspecified) 7.96%, COc1ccccc1-c1[nH]nc2ncc(C(=O)NCC3CC3)nc12 -1.26% [at 57.5 µM], OCCC1CN(c2nccc(-c3ccccn3)n2)CCN1Cc1ccoc1 (stereo unspecified) 3.48%, CCN(CC)C(=O)[C@@H]1C[C@@H](NC(=O)c2ccn(CC)c(=O)c2)CN1C(C)=O 25%, O=C(NC1CCCC1)c1ccc(OC2CCN(C(=O)C3CCCO3)CC2)c(Cl)c1 (stereo unspecified) 2.13%, CC(C)n1cc(CN2C[C@@H]3C(=O)N(Cc4ccc5c(c4)OCO5)C(=O)[C@@H]3C2)c2ccccc21 -1.66%, Cc1ccnn1CCC(=O)N[C@@H]1COCC[C@H]1Oc1ccc(C(N)=O)cc1 -8.46%
